# The list shows a part of the results.
# Columns and labels:
# Assay in all cases: glycan array binding signal (z-score within array); higher = stronger binding
# Conditions in all cases: glycan notation: IUPAC condensed, linker removed
# [1] = target: GlcNAc(b1-3)Gal(b1-3)GalNAc
# Method in brief: (§1)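 Arrays were curated from the Consortium for Functional Glycomics database, 3228 in total, and kept only where the protein sequence was available. Binding is expressed as a within-array Z-score. This score was averaged across arrays of the same protein sequence at different concentrations or buffers and across linkers, and negative values can be read as non-binding.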
# GlcNAc(b1-3)Gal(b1-4)Glc = target: GlcNAc(b1-3)Gal(b1-4)Glc
# Method in brief: as §1
# [2] = target: GlcNAc(b1-3)Gal(b1-4)GlcNAc
# Method in brief: as §1
# [3] = target: GlcNAc(b1-3)Gal(b1-4)GlcNAc(b1-2)Man(a1-3)[GlcNAc(b1-3)Gal(b1-4)GlcNAc(b1-2)Man(a1-6)]Man(b1-4)GlcNAc(b1-4)GlcNAc
# Method in brief: as §1
# [4] = target: GlcNAc(b1-3)Gal(b1-4)GlcNAc(b1-2)Man(a1-3)[GlcNAc(b1-3)Gal(b1-4)GlcNAc(b1-2)Man(a1-6)]Man(b1-4)GlcNAc(b1-4)[Fuc(a1-6)]GlcNAc
# Method in brief: as §1
# [5] = target: GlcNAc(b1-3)Gal(b1-4)GlcNAc(b1-2)[GlcNAc(b1-3)Gal(b1-4)GlcNAc(b1-6)]Man(a1-6)[GlcNAc(b1-3)Gal(b1-4)GlcNAc(b1-2)Man(a1-3)]Man(b1-4)GlcNAc(b1-4)GlcNAc
# Method in brief: as §1
# [6] = target: GlcNAc(b1-3)Gal(b1-4)GlcNAc(b1-3)Gal(b1-4)GlcNAc
# Method in brief: as §1
# [7] = target: GlcNAc(b1-3)Gal(b1-4)GlcNAc(b1-3)Gal(b1-4)GlcNAc(b1-2)Man(a1-3)[GlcNAc(b1-3)Gal(b1-4)GlcNAc(b1-3)Gal(b1-4)GlcNAc(b1-2)Man(a1-6)]Man(b1-4)GlcNAc(b1-4)GlcNAc
# Method in brief: as §1
# [8] = target: GlcNAc(b1-3)Gal(b1-4)GlcNAc(b1-3)Gal(b1-4)GlcNAc(b1-2)Man(a1-3)[GlcNAc(b1-3)Gal(b1-4)GlcNAc(b1-3)Gal(b1-4)GlcNAc(b1-2)Man(a1-6)]Man(b1-4)GlcNAc(b1-4)[Fuc(a1-6)]GlcNAc
# Method in brief: as §1
# [9] = target: GlcNAc(b1-3)Gal(b1-4)GlcNAc(b1-3)Gal(b1-4)GlcNAc(b1-2)[GlcNAc(b1-3)Gal(b1-4)GlcNAc(b1-3)Gal(b1-4)GlcNAc(b1-6)]Man(a1-6)[GlcNAc(b1-3)Gal(b1-4)GlcNAc(b1-3)Gal(b1-4)GlcNAc(b1-2)Man(a1-3)]Man(b1-4)GlcNAc(b1-4)[Fuc(a1-6)]GlcNAc
# Method in brief: as §1
# [10] = target: GlcNAc(b1-3)Gal(b1-4)GlcNAc(b1-3)Gal(b1-4)GlcNAc(b1-3)Gal(b1-4)GlcNAc(b1-2)Man(a1-3)[GlcNAc(b1-3)Gal(b1-4)GlcNAc(b1-3)Gal(b1-4)GlcNAc(b1-3)Gal(b1-4)GlcNAc(b1-2)Man(a1-6)]Man(b1-4)GlcNAc(b1-4)GlcNAc
# Method in brief: as §1
# [11] = target: GlcNAc(b1-3)Gal(b1-4)GlcNAc(b1-3)Gal(b1-4)GlcNAc(b1-3)Gal(b1-4)GlcNAc(b1-2)Man(a1-3)[GlcNAc(b1-3)Gal(b1-4)GlcNAc(b1-3)Gal(b1-4)GlcNAc(b1-3)Gal(b1-4)GlcNAc(b1-2)Man(a1-6)]Man(b1-4)GlcNAc(b1-4)[Fuc(a1-6)]GlcNAc
# Method in brief: as §1
# [12] = target: GlcNAc(b1-3)Gal(b1-4)GlcNAc(b1-3)Gal(b1-4)GlcNAc(b1-3)Gal(b1-4)GlcNAc(b1-2)[GlcNAc(b1-3)Gal(b1-4)GlcNAc(b1-3)Gal(b1-4)GlcNAc(b1-3)Gal(b1-4)GlcNAc(b1-6)]Man(a1-6)[GlcNAc(b1-3)Gal(b1-4)GlcNAc(b1-3)Gal(b1-4)GlcNAc(b1-3)Gal(b1-4)GlcNAc(b1-2)Man(a1-3)]Man(b1-4)GlcNAc(b1-4)[Fuc(a1-6)]GlcNAc
# Method in brief: as §1
# [13] = target: GlcNAc(b1-3)Gal(b1-4)GlcNAc(b1-3)Gal(b1-4)GlcNAc(b1-3)Gal(b1-4)GlcNAc(b1-3)Gal(b1-4)GlcNAc(b1-2)Man(a1-3)[GlcNAc(b1-3)Gal(b1-4)GlcNAc(b1-3)Gal(b1-4)GlcNAc(b1-3)Gal(b1-4)GlcNAc(b1-3)Gal(b1-4)GlcNAc(b1-2)Man(a1-6)]Man(b1-4)GlcNAc(b1-4)GlcNAc
# Method in brief: as §1
# [14] = target: GlcNAc(b1-3)Gal(b1-4)GlcNAc(b1-3)Gal(b1-4)GlcNAc(b1-3)Gal(b1-4)GlcNAc(b1-3)Gal(b1-4)GlcNAc(b1-2)Man(a1-3)[GlcNAc(b1-3)Gal(b1-4)GlcNAc(b1-3)Gal(b1-4)GlcNAc(b1-3)Gal(b1-4)GlcNAc(b1-3)Gal(b1-4)GlcNAc(b1-2)Man(a1-6)]Man(b1-4)GlcNAc(b1-4)[Fuc(a1-6)]GlcNAc
# Method in brief: as §1
# [15] = target: GlcNAc(b1-3)Gal(b1-4)GlcNAc(b1-3)Gal(b1-4)GlcNAc(b1-3)Gal(b1-4)GlcNAc(b1-3)Gal(b1-4)GlcNAc(b1-2)[GlcNAc(b1-3)Gal(b1-4)GlcNAc(b1-3)Gal(b1-4)GlcNAc(b1-3)Gal(b1-4)GlcNAc(b1-3)Gal(b1-4)GlcNAc(b1-6)]Man(a1-6)[GlcNAc(b1-3)Gal(b1-4)GlcNAc(b1-3)Gal(b1-4)GlcNAc(b1-3)Gal(b1-4)GlcNAc(b1-3)Gal(b1-4)GlcNAc(b1-2)Man(a1-3)]Man(b1-4)GlcNAc(b1-4)[Fuc(a1-6)]GlcNAc
# Method in brief: as §1
# [16] = target: GlcNAc(b1-3)Gal(b1-4)GlcNAc(b1-3)Gal(b1-4)GlcNAc(b1-3)GalNAc
# Method in brief: as §1
# [17] = target: GlcNAc(b1-3)Gal(b1-4)GlcNAc(b1-3)GalNAc
# Method in brief: as §1
# [18] = target: GlcNAc(b1-3)Gal(b1-4)GlcNAc(b1-3)[GlcNAc(b1-3)Gal(b1-4)GlcNAc(b1-3)]GalNAc
# Method in brief: as §1
# [19] = target: GlcNAc(b1-3)Gal(b1-4)GlcNAc(b1-6)[Gal(b1-3)]GalNAc
# Method in brief: as §1
# [20] = target: GlcNAc(b1-3)Gal(b1-4)GlcNAc(b1-6)[GlcNAc(b1-3)Gal(b1-3)]GalNAc
# Method in brief: as §1
# [21] = target: GlcNAc(b1-3)Gal(b1-4)GlcNAc(b1-6)[GlcNAc(b1-3)]Gal(b1-4)GlcNAc
# Method in brief: as §1
# GlcNAc(b1-3)GalNAc = target: GlcNAc(b1-3)GalNAc
# Method in brief: as §1
# GlcNAc(b1-3)Man = target: GlcNAc(b1-3)Man
# Method in brief: as §1
# [22] = target: GlcNAc(b1-3)[GlcNAc(b1-4)][GlcNAc(b1-6)]GlcNAc
# Method in brief: as §1
# [23] = target: GlcNAc(b1-3)[GlcNAc(b1-6)]Gal(b1-4)GlcNAc
# Method in brief: as §1
# [24] = target: GlcNAc(b1-3)[GlcNAc(b1-6)]GalNAc
# Method in brief: as §1
# [25] = target: GlcNAc(b1-4)Gal(b1-4)GlcNAc
# Method in brief: as §1
# GlcNAc(b1-4)GlcNAc = target: GlcNAc(b1-4)GlcNAc
# Method in brief: as §1
# [26] = target: GlcNAc(b1-4)GlcNAc(b1-4)GlcNAc
# Method in brief: as §1
# [27] = target: GlcNAc(b1-4)GlcNAc(b1-4)GlcNAc(b1-4)GlcNAc(b1-4)GlcNAc
# Method in brief: as §1
# [28] = target: GlcNAc(b1-4)GlcNAc(b1-4)GlcNAc(b1-4)GlcNAc(b1-4)GlcNAc(b1-4)GlcNAc
# Method in brief: as §1
# [29] = target: GlcNAc(b1-4)[GlcNAc(b1-6)]GalNAc
# Method in brief: as §1
# [30] = target: GlcNAc(b1-6)Gal(b1-4)GlcNAc
# Method in brief: as §1
# GlcNAc(b1-6)GalNAc = target: GlcNAc(b1-6)GalNAc
# Method in brief: as §1
# [31] = target: GlcNAc6S(b1-3)Gal(b1-4)GlcNAc
# Method in brief: as §1
# Kdn(a2-3)Gal(b1-3)GalNAc = target: Kdn(a2-3)Gal(b1-3)GalNAc
# Method in brief: as §1
binder,measurement,setting,value
"HA-00510 (Pseudomonas aeruginosa), Q02V39_PSEAB (protein) GVPIVNIATPNGAGLSNNHFRDYNVGANGLILNNATGKTQGTQLGGIILGNPNLKGQAAQVILNQVTGGNRSTLAGYTEVAGQSARVIVANPHGITCQGCGFINTPRATLTTGKPIMDGQRLERFQVDGGDIVVEGAELNVGNLEQFDLITRSAKLNAKLYAKNLNIVTGRNDVQADSLQATPRAADGSEKPQLAIDSSALGGMYAGAIRLVGTEQGVGVKLAGDMAASGGDIRIDASGKLSLAQASSQGDLKIAAQAVELNGKTYAGGSAEIRSAEELVNRQS",glycan array binding signal (z-score),[1],-0.156
same,glycan array binding signal (z-score),GlcNAc(b1-3)Gal(b1-4)Glc,-0.779
same,glycan array binding signal (z-score),[2],-0.233
same,glycan array binding signal (z-score),[3],0.009
same,glycan array binding signal (z-score),[4],0.168
same,glycan array binding signal (z-score),[5],0.061
same,glycan array binding signal (z-score),[6],0.134
same,glycan array binding signal (z-score),[7],4.3
same,glycan array binding signal (z-score),[8],1.68
same,glycan array binding signal (z-score),[9],1.5
same,glycan array binding signal (z-score),[10],1.57
same,glycan array binding signal (z-score),[11],-0.449
same,glycan array binding signal (z-score),[12],0.54
same,glycan array binding signal (z-score),[13],0.95
same,glycan array binding signal (z-score),[14],0.56
same,glycan array binding signal (z-score),[15],-0.664
same,glycan array binding signal (z-score),[16],-0.18
same,glycan array binding signal (z-score),[17],0.06
same,glycan array binding signal (z-score),[18],-0.255
same,glycan array binding signal (z-score),[19],-1.21
same,glycan array binding signal (z-score),[20],0.345
same,glycan array binding signal (z-score),[21],-0.708
same,glycan array binding signal (z-score),GlcNAc(b1-3)GalNAc,-0.895
same,glycan array binding signal (z-score),GlcNAc(b1-3)Man,-0.566
same,glycan array binding signal (z-score),[22],-0.79
same,glycan array binding signal (z-score),[23],-0.665
same,glycan array binding signal (z-score),[24],-0.542
same,glycan array binding signal (z-score),[25],0.418
same,glycan array binding signal (z-score),GlcNAc(b1-4)GlcNAc,-0.693
same,glycan array binding signal (z-score),[26],-0.367
same,glycan array binding signal (z-score),[27],0.345
same,glycan array binding signal (z-score),[28],-1.17
same,glycan array binding signal (z-score),[29],-0.368
same,glycan array binding signal (z-score),[30],1.38
same,glycan array binding signal (z-score),GlcNAc(b1-6)GalNAc,0.018
same,glycan array binding signal (z-score),[31],-0.014
same,glycan array binding signal (z-score),Kdn(a2-3)Gal(b1-3)GalNAc,0.981

# Reformatted as tab-separated lines: part of the list above
binder	measurement	setting	value
HA-00510 (Pseudomonas aeruginosa), Q02V39_PSEAB (protein) GVPIVNIATPNGAGLSNNHFRDYNVGANGLILNNATGKTQGTQLGGIILGNPNLKGQAAQVILNQVTGGNRSTLAGYTEVAGQSARVIVANPHGITCQGCGFINTPRATLTTGKPIMDGQRLERFQVDGGDIVVEGAELNVGNLEQFDLITRSAKLNAKLYAKNLNIVTGRNDVQADSLQATPRAADGSEKPQLAIDSSALGGMYAGAIRLVGTEQGVGVKLAGDMAASGGDIRIDASGKLSLAQASSQGDLKIAAQAVELNGKTYAGGSAEIRSAEELVNRQS	glycan array binding signal (z-score)	[3]	0.009
same	glycan array binding signal (z-score)	GlcNAc(b1-3)Man	-0.566

# — the supplement of paper PMC8728848
